Assay results from paper PMC5896025.

By UniProt entry, the sequences of proteins in these tests, tags left out. Where a name states a change or a piece, a line headed by the entry shows the natural chain unless it says otherwise.
UniProt P20263, whole entry: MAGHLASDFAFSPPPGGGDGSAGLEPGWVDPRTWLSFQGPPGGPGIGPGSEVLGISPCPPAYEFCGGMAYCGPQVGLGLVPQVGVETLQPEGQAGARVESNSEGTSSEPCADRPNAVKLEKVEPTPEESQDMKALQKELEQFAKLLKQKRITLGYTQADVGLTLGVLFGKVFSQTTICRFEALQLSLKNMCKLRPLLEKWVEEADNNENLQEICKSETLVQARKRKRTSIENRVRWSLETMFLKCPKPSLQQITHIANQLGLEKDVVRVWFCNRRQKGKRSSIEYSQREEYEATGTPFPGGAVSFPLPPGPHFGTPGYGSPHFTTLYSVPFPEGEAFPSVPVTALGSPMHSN
UniProt P48432: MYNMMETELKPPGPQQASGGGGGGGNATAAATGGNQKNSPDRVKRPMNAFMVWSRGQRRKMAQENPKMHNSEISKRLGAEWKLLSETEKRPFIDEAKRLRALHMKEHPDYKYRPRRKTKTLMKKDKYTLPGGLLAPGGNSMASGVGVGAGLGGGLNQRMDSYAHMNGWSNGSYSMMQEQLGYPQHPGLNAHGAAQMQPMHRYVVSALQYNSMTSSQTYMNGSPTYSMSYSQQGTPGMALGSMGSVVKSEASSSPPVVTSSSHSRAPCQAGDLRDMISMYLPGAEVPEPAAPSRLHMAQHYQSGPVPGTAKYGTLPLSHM

Legend:
[1] = molecular target: GFP-Oct4 (N-terminal GFP fusion, GGSG linker) (mouse) (UniProt P20263); assay: FCS; conditions: apparent Kd, protein in a lysate after overexpression, protein details: N-terminal GFP, GGSG linker, label: Cy5
[2] = molecular target: mCherry-Sox2 (N-terminal mCherry fusion, GGSG linker) (mouse) (UniProt P48432); assay: FCS; conditions: apparent Kd, no Oct4; protein in a lysate after overexpression; protein details: N-terminal mCherry, GGSG linker; label: Cy5
[3] = molecular target: mCherry-Sox2 (N-terminal mCherry fusion, GGSG linker) (mouse) (UniProt P48432); assay: EMSA; conditions: FCS/EMSA with 5 nM Cy5-DNA (FCS) and unpurified CHO nuclear lysate, protein in a lysate after overexpression, protein details: N-terminal mCherry, GGSG linker, label: Cy5
[4] = test system: GFP-Oct4 (N-terminal GFP fusion, GGSG linker) + mCherry-Sox2 (N-terminal mCherry fusion, GGSG linker); assay: FCS; conditions: apparent Kd, protein in a lysate after overexpression, label: Cy5
[5] = test system: GFP-Oct4 (N-terminal GFP fusion, GGSG linker) + mCherry-Sox2 (N-terminal mCherry fusion, GGSG linker); assay: EMSA; conditions: FCS/EMSA with 5 nM Cy5-DNA (FCS) and unpurified CHO nuclear lysate, protein in a lysate after overexpression, label: Cy5; for Kd: apparent Kd
[6] = test system: GFP-Oct4 (N-terminal GFP fusion, GGSG linker) + endogenous Sox2; assay: EMSA; conditions: ES cell nuclear lysate; FCS/EMSA with 5 nM Cy5-DNA (FCS) and unpurified CHO nuclear lysate; protein in a lysate after overexpression; protein details: N-terminal GFP, GGSG linker; label: Cy5
[7] = molecular target: GFP-Oct4 (N-terminal GFP fusion, GGSG linker) (mouse) (UniProt P20263); assay: EMSA; conditions: ES cell nuclear lysate; FCS/EMSA with 5 nM Cy5-DNA (FCS) and unpurified CHO nuclear lysate; protein in a lysate after overexpression; protein details: N-terminal GFP, GGSG linker; label: Cy5
[8] = test system: GFP-Oct4 (N-terminal GFP fusion, GGSG linker) + mCherry-Sox2 (N-terminal mCherry fusion, GGSG linker); assay: FRET; conditions: CHO nuclear extract, no FRET without DNA; protein in a lysate after overexpression; label: Cy5
[9] = no Sox2, assignment by order in sentence

## CTATCATGCACCTTTGTTATGCATCTGCCGTCTGCCC (double strand) [Oct4-SO]
[1]; [9]
  Kd: 7.7 nM

## CTCGGGCAGCCATTGTGATGCATATAGGATTATTCA (double strand) [Sox2-SO]
[2]
  Kd: 66.1 nM
[1]; [9]
  Kd: 15.9 nM

## GCCACCCCACTTCATTGTAGCATTTCTTTCATTTGTC (double strand) [Fgfr2-S]
[2]
  Kd: 81.2 nM
[3]; monomer complex
  binding result: binds

## GGATGAGCCGTCATTGTTATGCTAGTGAAGTGCCGGC (double strand) [Utf1-SO]
[4]; GFP-Oct4 titrated, mCherry-Sox2 37 nM, cooperativity 1.6
  Kd: 19.8 nM
[4]; GFP-Oct4 titrated, mCherry-Sox2 72 nM, cooperativity 2.1
  Kd: 15.5 nM
[4]; mCherry-Sox2 titrated, GFP-Oct4 40 nM, cooperativity 1.0
  Kd: 43.4 nM
[2]
  Kd: 44 nM
[1]; no Sox2
  Kd: 32 nM

## TAGAAAACTCTTTGTTTGGATGCTAATGGGATACTTA (double strand) [Fgf4-SO]
[4]; GFP-Oct4 titrated, mCherry-Sox2 37 nM, cooperativity 0.9
  Kd: 49.1 nM
[4]; GFP-Oct4 titrated, mCherry-Sox2 72 nM
  Kd: 25.3 nM
[4]; mCherry-Sox2 titrated, GFP-Oct4 40 nM
  Kd: 24 nM
[2]
  Kd: 70.2 nM
[1]; no Sox2
  Kd: 42.5 nM
[5]; GFP-Oct4 titrated, mCherry-Sox2 72 nM, Table 1 gives this value as FCS, cooperativity 1.7
  Kd: 25.2 nM
[5]; mCherry-Sox2 titrated, GFP-Oct4 40 nM, Table 1 prints 23.3 ± 1.2 (FCS), cooperativity 3.0
  Kd: 23.2 nM
[3]; monomer complex
  binding result: binds

## TCCACCATGGACATTGTAATGCAAAAGAAGCTGTAAG (double strand) [Nanog-SO]
[4]; GFP-Oct4 titrated, mCherry-Sox2 37 nM, cooperativity 2.0
  Kd: 13.8 nM
[4]; GFP-Oct4 titrated, mCherry-Sox2 72 nM, cooperativity 2.4
  Kd: 11.6 nM
[4]; mCherry-Sox2 titrated, GFP-Oct4 40 nM, cooperativity 2.4
  Kd: 13.2 nM
[2]
  Kd: 31.7 nM
[1]; no Sox2
  Kd: 28.2 nM
[6]
  binding result: binds
[5]; ES cell nuclear lysate
  binding result: binds
[3]; ES cell nuclear lysate
  binding result: binds
[7]
  binding result: binds
[8]
  binding result: binds

For at least one entry, the source does not settle the construct or the ends of the probe. Where cells or extracts were used, other partners may take part.
